According to PMC10948934:
These are yes or no findings as the source states them, for the method shown. Binding seen in cells or lysates may run through a third protein. Binding can be weak; no strength is given.

Chains of the proteins cited; added tags and fusions are not shown. Lines headed by an entry give the natural chain unless they say otherwise; changes in a name come on top.
UniProt Q9W0K9: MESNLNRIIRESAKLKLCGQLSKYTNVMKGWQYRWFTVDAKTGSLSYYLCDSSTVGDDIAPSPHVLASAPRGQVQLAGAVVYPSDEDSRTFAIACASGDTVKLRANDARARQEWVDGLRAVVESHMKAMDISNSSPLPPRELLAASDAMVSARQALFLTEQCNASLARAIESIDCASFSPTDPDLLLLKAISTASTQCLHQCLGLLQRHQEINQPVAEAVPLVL

Molecular target: T1, dVAP-A (Drosophila melanogaster (endogenous in fly heads)) (UniProt Q9W4N8)
T1 sequence: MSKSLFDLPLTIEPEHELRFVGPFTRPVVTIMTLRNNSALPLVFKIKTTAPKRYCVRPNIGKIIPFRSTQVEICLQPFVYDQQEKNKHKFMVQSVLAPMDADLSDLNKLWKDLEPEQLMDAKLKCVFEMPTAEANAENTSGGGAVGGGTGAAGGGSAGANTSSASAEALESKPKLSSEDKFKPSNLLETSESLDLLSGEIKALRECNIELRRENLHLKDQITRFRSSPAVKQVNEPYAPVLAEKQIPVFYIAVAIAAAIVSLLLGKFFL
Assay: co-IP; fly head lysates (UAS constructs under GMR promoter); dVAP-A antibody or control IgG overnight at 4°C, protein G Sepharose; Western blot

With 3HA::CG9205 (from UniProt Q9W0K9) the binding was “binds”.
